Source: the supplement of paper PMC10849652
This is one part of the list.

The chains behind the UniProt entries cited, without tags or fusion partners. Where a name states a change or a piece, a line headed by the entry shows the natural chain unless it says otherwise.
UniProt Q8N9N2: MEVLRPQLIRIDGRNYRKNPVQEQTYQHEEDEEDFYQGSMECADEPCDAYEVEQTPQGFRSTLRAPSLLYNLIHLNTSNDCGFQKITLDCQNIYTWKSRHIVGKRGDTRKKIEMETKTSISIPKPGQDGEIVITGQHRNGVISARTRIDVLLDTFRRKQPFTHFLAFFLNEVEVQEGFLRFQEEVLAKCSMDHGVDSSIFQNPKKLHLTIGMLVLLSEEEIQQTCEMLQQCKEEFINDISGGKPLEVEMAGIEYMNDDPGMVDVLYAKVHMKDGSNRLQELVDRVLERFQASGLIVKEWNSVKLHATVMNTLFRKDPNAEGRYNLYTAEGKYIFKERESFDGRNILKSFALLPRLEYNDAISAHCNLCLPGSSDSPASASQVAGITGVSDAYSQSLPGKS
UniProt L0R819, whole entry, looked up: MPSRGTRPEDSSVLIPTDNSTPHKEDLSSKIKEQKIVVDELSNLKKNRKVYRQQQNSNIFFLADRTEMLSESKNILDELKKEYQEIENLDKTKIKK
UniProt Q8N2F6: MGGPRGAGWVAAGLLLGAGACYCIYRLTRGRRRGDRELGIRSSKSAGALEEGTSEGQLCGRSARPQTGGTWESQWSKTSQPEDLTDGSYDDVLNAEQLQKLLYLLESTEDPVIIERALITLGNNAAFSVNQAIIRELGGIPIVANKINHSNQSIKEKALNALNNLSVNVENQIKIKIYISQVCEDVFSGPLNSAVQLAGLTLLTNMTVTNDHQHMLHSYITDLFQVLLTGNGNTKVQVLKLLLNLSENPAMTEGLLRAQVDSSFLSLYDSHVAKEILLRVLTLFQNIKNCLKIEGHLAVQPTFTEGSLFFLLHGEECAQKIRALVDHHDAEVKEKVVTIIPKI
UniProt Q9BPX5, whole entry, looked up: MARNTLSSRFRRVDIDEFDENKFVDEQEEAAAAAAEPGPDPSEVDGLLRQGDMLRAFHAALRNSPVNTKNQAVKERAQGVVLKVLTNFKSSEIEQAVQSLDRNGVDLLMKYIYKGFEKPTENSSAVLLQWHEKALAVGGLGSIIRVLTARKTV
UniProt P40616: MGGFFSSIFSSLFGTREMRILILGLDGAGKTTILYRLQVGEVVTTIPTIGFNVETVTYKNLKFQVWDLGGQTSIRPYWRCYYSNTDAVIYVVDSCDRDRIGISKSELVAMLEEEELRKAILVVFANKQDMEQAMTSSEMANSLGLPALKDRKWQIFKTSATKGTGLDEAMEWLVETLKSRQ
UniProt Q8NHH9: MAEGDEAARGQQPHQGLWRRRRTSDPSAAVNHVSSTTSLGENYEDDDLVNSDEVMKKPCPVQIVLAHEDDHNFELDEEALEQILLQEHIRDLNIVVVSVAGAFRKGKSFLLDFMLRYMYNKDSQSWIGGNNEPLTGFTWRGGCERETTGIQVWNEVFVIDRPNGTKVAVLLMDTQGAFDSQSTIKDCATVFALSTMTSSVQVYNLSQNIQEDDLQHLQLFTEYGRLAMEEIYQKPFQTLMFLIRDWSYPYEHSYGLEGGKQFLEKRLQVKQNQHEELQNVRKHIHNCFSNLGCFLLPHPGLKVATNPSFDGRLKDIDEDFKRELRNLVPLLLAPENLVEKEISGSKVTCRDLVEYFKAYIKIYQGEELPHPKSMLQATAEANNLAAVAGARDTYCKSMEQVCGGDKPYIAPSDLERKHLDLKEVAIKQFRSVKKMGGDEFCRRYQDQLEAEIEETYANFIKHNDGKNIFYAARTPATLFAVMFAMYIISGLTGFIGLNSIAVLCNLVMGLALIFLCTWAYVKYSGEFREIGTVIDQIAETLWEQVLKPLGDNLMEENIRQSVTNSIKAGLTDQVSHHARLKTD
UniProt P98196: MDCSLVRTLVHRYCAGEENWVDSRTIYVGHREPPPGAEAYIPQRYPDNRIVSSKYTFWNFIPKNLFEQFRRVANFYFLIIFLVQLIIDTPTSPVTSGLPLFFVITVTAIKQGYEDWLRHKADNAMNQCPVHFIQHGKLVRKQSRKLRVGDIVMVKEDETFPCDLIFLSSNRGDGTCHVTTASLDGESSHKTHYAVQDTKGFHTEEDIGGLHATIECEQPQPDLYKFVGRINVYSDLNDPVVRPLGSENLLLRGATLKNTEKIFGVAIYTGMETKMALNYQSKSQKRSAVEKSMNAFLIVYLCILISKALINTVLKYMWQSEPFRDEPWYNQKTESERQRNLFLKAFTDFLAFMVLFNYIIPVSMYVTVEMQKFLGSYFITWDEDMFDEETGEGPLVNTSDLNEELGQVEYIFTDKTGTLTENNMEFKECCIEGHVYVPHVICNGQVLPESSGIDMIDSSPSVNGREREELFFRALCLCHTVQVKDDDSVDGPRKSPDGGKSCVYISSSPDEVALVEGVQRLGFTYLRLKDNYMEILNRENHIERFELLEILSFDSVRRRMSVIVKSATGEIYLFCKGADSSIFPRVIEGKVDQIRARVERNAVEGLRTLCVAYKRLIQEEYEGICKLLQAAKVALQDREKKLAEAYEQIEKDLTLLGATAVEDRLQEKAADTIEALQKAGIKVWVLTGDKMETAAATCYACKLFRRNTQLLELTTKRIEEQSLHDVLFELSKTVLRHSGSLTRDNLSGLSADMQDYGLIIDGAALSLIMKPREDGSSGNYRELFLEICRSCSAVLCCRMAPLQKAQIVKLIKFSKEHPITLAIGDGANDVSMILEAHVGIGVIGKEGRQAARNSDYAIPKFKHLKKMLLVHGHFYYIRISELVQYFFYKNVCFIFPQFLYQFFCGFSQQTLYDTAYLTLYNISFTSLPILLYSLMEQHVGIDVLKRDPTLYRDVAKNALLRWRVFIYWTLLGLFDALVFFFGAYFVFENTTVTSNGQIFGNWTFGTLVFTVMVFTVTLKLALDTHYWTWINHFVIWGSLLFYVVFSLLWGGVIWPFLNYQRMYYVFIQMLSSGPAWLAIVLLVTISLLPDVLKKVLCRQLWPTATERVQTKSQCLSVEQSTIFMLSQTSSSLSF
UniProt O94817, whole entry, looked up: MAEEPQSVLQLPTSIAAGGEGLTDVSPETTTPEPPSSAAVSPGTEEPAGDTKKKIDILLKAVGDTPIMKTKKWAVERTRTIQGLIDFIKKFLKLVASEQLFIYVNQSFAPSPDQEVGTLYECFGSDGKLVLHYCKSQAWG
UniProt O75947: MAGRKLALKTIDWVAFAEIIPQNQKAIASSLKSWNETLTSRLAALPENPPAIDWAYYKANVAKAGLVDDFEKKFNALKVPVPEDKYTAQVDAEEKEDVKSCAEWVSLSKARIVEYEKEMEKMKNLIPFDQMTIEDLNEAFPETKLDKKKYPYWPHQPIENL
UniProt P15848: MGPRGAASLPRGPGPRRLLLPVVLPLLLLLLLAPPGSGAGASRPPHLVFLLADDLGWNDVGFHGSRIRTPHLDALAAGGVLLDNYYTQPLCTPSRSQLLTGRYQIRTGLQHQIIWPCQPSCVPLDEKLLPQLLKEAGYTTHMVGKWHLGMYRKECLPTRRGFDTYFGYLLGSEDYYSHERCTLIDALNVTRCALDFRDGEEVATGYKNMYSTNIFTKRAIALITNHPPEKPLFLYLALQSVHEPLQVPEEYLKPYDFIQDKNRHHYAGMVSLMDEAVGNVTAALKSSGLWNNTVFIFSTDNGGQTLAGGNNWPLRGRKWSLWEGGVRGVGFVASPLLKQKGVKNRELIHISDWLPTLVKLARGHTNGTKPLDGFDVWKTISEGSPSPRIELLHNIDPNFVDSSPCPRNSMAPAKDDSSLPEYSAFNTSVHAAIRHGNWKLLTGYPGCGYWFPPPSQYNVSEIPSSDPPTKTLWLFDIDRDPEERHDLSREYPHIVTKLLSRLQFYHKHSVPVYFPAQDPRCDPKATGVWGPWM
UniProt Q9Y2G3: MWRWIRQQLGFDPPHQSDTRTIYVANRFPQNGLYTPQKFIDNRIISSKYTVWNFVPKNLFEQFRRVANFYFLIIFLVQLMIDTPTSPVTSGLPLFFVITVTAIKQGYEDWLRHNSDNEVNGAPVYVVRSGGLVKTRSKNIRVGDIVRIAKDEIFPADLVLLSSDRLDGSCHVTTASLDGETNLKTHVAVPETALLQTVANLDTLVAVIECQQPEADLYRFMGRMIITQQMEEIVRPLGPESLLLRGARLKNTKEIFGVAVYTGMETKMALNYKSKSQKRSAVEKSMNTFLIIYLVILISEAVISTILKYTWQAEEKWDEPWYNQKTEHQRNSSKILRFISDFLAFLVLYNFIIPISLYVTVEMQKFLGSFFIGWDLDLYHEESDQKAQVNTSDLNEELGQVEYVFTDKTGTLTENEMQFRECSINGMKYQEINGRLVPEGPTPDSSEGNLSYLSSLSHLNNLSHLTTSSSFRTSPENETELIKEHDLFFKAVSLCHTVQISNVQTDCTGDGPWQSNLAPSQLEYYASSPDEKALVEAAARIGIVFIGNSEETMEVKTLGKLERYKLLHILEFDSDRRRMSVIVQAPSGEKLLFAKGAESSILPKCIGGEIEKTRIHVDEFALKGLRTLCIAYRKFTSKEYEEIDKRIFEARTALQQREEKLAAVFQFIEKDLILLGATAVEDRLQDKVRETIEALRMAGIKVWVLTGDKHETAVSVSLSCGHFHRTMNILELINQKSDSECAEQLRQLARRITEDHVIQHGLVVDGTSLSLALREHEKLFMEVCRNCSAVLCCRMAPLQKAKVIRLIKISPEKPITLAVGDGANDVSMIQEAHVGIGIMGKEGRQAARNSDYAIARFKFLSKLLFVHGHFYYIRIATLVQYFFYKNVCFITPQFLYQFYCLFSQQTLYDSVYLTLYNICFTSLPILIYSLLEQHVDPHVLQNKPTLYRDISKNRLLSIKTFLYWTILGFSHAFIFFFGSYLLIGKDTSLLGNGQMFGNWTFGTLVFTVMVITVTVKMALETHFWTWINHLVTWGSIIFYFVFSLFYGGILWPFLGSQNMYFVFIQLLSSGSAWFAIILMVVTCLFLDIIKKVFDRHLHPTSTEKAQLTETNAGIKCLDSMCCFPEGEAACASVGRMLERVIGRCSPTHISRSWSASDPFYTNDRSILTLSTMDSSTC
UniProt Q9NWX5: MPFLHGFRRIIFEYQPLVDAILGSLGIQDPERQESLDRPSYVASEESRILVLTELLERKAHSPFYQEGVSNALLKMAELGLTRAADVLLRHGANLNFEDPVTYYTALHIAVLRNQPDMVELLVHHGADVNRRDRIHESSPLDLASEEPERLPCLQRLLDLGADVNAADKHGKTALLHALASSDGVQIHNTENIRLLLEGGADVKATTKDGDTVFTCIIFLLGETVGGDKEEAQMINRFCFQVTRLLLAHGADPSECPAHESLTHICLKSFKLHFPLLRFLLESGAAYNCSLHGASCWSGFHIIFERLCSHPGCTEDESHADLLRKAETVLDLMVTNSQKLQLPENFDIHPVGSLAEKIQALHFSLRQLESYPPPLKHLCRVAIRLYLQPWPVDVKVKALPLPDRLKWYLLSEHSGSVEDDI
UniProt O75915: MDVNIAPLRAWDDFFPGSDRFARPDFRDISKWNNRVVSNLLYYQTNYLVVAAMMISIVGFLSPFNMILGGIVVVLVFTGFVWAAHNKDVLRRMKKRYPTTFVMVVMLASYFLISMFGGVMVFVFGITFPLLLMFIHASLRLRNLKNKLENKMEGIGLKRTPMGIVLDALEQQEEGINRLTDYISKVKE
UniProt O95376: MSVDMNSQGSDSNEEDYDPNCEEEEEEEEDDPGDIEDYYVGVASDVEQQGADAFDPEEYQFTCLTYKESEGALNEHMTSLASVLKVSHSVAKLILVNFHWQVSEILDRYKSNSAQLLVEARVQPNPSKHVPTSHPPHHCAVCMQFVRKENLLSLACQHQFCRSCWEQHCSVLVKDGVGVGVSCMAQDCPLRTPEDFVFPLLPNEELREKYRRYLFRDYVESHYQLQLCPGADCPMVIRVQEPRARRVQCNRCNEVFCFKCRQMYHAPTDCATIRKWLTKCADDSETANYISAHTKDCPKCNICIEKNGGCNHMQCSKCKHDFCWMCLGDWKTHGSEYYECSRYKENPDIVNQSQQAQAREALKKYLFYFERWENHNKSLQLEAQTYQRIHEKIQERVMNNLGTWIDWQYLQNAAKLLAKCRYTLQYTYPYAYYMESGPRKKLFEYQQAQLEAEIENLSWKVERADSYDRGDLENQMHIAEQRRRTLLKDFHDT
UniProt Q6NXE6: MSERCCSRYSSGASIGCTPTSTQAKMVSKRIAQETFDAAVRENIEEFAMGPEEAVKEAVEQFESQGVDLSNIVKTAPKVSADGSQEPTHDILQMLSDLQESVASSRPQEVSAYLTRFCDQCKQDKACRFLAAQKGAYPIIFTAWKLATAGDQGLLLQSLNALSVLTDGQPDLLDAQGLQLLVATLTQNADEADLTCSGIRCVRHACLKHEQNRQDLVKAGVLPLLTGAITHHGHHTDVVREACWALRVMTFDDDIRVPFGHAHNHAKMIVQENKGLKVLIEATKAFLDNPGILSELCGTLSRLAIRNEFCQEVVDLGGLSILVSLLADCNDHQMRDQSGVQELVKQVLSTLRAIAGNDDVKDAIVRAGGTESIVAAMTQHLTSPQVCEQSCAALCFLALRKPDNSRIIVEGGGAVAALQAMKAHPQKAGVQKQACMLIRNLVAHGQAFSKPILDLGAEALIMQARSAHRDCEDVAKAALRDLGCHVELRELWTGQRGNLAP
UniProt Q96IX5: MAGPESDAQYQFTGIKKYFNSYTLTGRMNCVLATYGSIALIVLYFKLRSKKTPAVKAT

Key:
Assay in all cases: log2 fold change, soluble protein after heating vs DMSO (PISA); higher = thermal stabilisation; K562 cells, 10 uM, 30 min; active = over 0.2 and 3.5 SD of the protein, either way, in both replicates (recomputed)
[1] = compound: NC(=O)Nc1cc(-c2cccc(F)c2)sc1C(=O)N[C@H]1CCCNC1
In short: (§1)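 Thermal stability values are relative to control samples and come from duplicates. They are expressed as log2 fold changes. For measurement, K562 cells (2×10^6 cells/mL) received 10 μM compound for 30 min, and aliquots were heated for 3 min over 48°C-58°C, pooled, and extracted at 4°C in PBS with 0.5% NP-40. Soluble protein, the supernatant after 21,000xg for 90 min, was quantified by TMTpro 16plex LC-MS/MS with equalised channel sums.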

[2] = compound: NC(=O)c1cnc(N[C@@H]2CCCC[C@@H]2N)nc1Nc1cccc(-n2nccn2)c1
In short: as §1

[3] = compound: NC1(c2ccc(-c3nc4ccn5c(=O)[nH]nc5c4cc3-c3ccccc3)cc2)CCC1
In short: as §1

[4] = compound: NCC(=O)Nc1ccc(-n2nc(C(F)(F)F)cc2-c2ccc3c(ccc4ccccc43)c2)cc1
In short: as §1

[5] = compound: Nc1ccccc1NC(=O)c1ccc(CNC(=O)OCc2cccnc2)cc1 [entinostat]
In short: as §1

[6] = compound: O=C(CCCCCCC(=O)Nc1ccccc1)NO [vorinostat]
In short: as §1

[7] = compound: O=C(CCCCCCNC(=O)c1cnc(N(c2ccccc2)c2ccccc2Cl)nc1)NO [citarinostat]
In short: as §1

[8] = compound: O=C(O)c1ccc2c(c1)nc(Nc1cccc(Cl)c1)c1ccncc12 [silmitasertib]
In short: as §1

[9] = compound: O=C1NC(=O)C(c2cnc3ccccn23)=C1c1cn2c3c(cc(F)cc13)CN(C(=O)N1CCCCC1)CC2
In short: as §1

[10] = compound: c1cc(OCCN2CCCCC2)cc(-c2n[nH]c3ccc(-c4nnc[nH]4)cc23)c1
In short: as §1

Measured: log2 fold change

ASCC1 isoform 2 (UniProt Q8N9N2)
inactive: [1] -0.01 | [2] -0.066 | [3] -0.145 | [4] -0.026 | [5] 0.035 | [6] 0.045 | [7] 0.009 | [8] 0.017 | [9] 0.009 | [10] -0.133

ASDURF (UniProt L0R819)
inactive: [1] 0.004 | [2] -0.006 | [3] 0.033 | [4] 0.047 | [5] -0.047 | [6] -0.059 | [7] 0.009 | [8] 0 | [9] 0.087 | [10] -0.14

ATP5F1D (UniProt P30049)
inactive: [1] 0.033 | [2] -0.09 | [3] -0.018 | [4] 0.025 | [5] 0.014 | [6] -0.034 | [7] 0.049 | [8] -0.019 | [9] -0.034 | [10] -0.01

ARMC10 (UniProt Q8N2F6)
inactive: [1] -0.039 | [2] 0.003 | [3] 0.005 | [4] 0.028 | [5] 0.005 | [6] 0.056 | [7] 0.096 | [8] 0.054 | [9] -0.039 | [10] -0.062

ARPC5L (UniProt Q9BPX5)
inactive: [1] -0.016 | [2] -0.04 | [3] -0.009 | [4] -0.014 | [5] -0.031 | [6] -0.052 | [7] 0.049 | [8] 0.058 | [9] -0.032 | [10] -0.006

ASPM (UniProt Q8IZT6)
inactive: [1] -0.06 | [2] -0.007 | [3] -0.06 | [4] -0.036 | [5] -0.039 | [6] -0.107 | [7] -0.016 | [8] -0.102 | [9] 0.127 | [10] 0.014

ARL1 (UniProt P40616)
inactive: [1] 0.142 | [2] 0.055 | [3] -0.173 | [4] -0.019 | [5] 0.031 | [6] 0.149 | [7] 0.161 | [8] 0.006 | [9] 0.04 | [10] 0.007

ATP1B3 (UniProt P54709)
inactive: [1] -0.065 | [2] -0.011 | [3] 0.066 | [4] 0.004 | [5] -0.041 | [6] -0.007 | [7] 0.037 | [8] 0.002 | [9] -0.057 | [10] -0.088

ATL2 (UniProt Q8NHH9)
inactive: [1] -0.021 | [2] -0.03 | [3] -0.165 | [4] -0.094 | [5] -0.025 | [6] 0.017 | [7] -0.023 | [8] -0.004 | [9] -0.025 | [10] -0.058

ATP11A (UniProt P98196)
inactive: [1] -0.034 | [2] 0.065 | [3] -0.001 | [4] -0.054 | [5] -0.025 | [6] -0.08 | [7] -0.154 | [8] 0.065 | [9] -0.024
active: [10] -0.32

ATG12 (UniProt O94817)
inactive: [1] -0.03 | [2] -0.029 | [3] -0.131 | [4] 0.008 | [5] 0.036 | [6] 0.152 | [7] 0.001 | [8] -0.004 | [9] -0.008 | [10] -0.039

ATP5PD (UniProt O75947)
inactive: [1] -0.044 | [2] 0.03 | [3] 0.043 | [4] 0.01 | [5] 0.006 | [6] -0.028 | [7] 0.038 | [8] -0.039 | [9] -0.061 | [10] 0

ARSB (UniProt P15848)
inactive: [1] 0.038 | [2] 0.034 | [3] -0.087 | [4] -0.004 | [5] -0.041 | [6] -0.008 | [7] 0.081 | [8] -0.008 | [9] -0.005 | [10] -0.005

Eight neighbouring records from above, for reference:
ARPC5L (UniProt Q9BPX5)
inactive: [1] -0.016 | [2] -0.04 | [3] -0.009 | [4] -0.014 | [5] -0.031 | [6] -0.052 | [7] 0.049 | [8] 0.058 | [9] -0.032 | [10] -0.006

ASPM (UniProt Q8IZT6)
inactive: [1] -0.06 | [2] -0.007 | [3] -0.06 | [4] -0.036 | [5] -0.039 | [6] -0.107 | [7] -0.016 | [8] -0.102 | [9] 0.127 | [10] 0.014

ARL1 (UniProt P40616)
inactive: [1] 0.142 | [2] 0.055 | [3] -0.173 | [4] -0.019 | [5] 0.031 | [6] 0.149 | [7] 0.161 | [8] 0.006 | [9] 0.04 | [10] 0.007

ATP1B3 (UniProt P54709)
inactive: [1] -0.065 | [2] -0.011 | [3] 0.066 | [4] 0.004 | [5] -0.041 | [6] -0.007 | [7] 0.037 | [8] 0.002 | [9] -0.057 | [10] -0.088

ATL2 (UniProt Q8NHH9)
inactive: [1] -0.021 | [2] -0.03 | [3] -0.165 | [4] -0.094 | [5] -0.025 | [6] 0.017 | [7] -0.023 | [8] -0.004 | [9] -0.025 | [10] -0.058

ATP11A (UniProt P98196)
inactive: [1] -0.034 | [2] 0.065 | [3] -0.001 | [4] -0.054 | [5] -0.025 | [6] -0.08 | [7] -0.154 | [8] 0.065 | [9] -0.024
active: [10] -0.32

ATG12 (UniProt O94817)
inactive: [1] -0.03 | [2] -0.029 | [3] -0.131 | [4] 0.008 | [5] 0.036 | [6] 0.152 | [7] 0.001 | [8] -0.004 | [9] -0.008 | [10] -0.039

ATP5PD (UniProt O75947)
inactive: [1] -0.044 | [2] 0.03 | [3] 0.043 | [4] 0.01 | [5] 0.006 | [6] -0.028 | [7] 0.038 | [8] -0.039 | [9] -0.061 | [10] 0

Next records.

ATP2C1 isoform 7 (UniProt P98194)
inactive: [1] 0.07 | [2] -0.005 | [3] -0.112 | [4] -0.051 | [5] 0.037 | [6] -0.058 | [7] -0.026 | [8] 0.049 | [9] 0.136 | [10] -0.097

ATP9B (UniProt O43861)
inactive: [2] -0.028 | [3] 0.052 | [4] -0.029 | [5] -0.24 | [6] -0.044 | [7] 0.135 | [8] 0.071 | [9] 0.029 | [10] -0.048
active: [1] -0.58

ARPC2 (UniProt O15144)
inactive: [1] -0.01 | [2] 0.013 | [3] -0.048 | [4] -0.002 | [5] -0.031 | [6] -0.032 | [7] 0.028 | [8] 0.061 | [9] -0.042 | [10] -0.011

ATP11B (UniProt Q9Y2G3)
inactive: [1] -0.014 | [2] 0.063 | [3] 0.031 | [4] -0.075 | [5] -0.032 | [6] -0.028 | [7] 0.024 | [8] 0.056 | [9] -0.011 | [10] 0.006

ARPC3 (UniProt O15145)
inactive: [1] 0.028 | [2] 0.013 | [3] 0.008 | [4] 0.015 | [5] -0.048 | [6] -0.046 | [7] -0.013 | [8] 0.029 | [9] -0.049 | [10] 0.048

ATP5F1C (UniProt P36542)
inactive: [1] 0.004 | [2] -0.021 | [3] -0.005 | [4] -0.001 | [5] -0.022 | [6] -0.037 | [7] 0.003 | [8] -0.002 | [9] -0.027 | [10] -0.019

ASB6 (UniProt Q9NWX5)
inactive: [1] 0.076 | [2] 0.161 | [3] -0.216 | [4] -0.032 | [5] -0.12 | [6] -0.075 | [7] 0.106 | [8] -0.006 | [9] 0.059 | [10] 0.07

ATPAF1 (UniProt Q5TC12)
inactive: [1] 0.081 | [2] -0.007 | [3] -0.082 | [4] 0.016 | [5] 0.028 | [6] -0.032 | [7] 0.027 | [8] 0.019 | [9] -0.018 | [10] -0.066

ATP5MG (UniProt O75964)
inactive: [1] -0.001 | [2] 0.024 | [3] 0.07 | [4] 0.026 | [5] 0.012 | [6] -0.138 | [7] -0.063 | [8] -0.009 | [9] -0.131 | [10] -0.019

ATG101 (UniProt Q9BSB4)
inactive: [1] 0.027 | [2] -0.049 | [3] -0.027 | [4] 0.031 | [5] 0.092 | [6] 0.013 | [7] -0.005 | [8] 0.101 | [9] 0.004 | [10] -0.016

ARL6IP5 (UniProt O75915)
inactive: [1] -0.01 | [2] -0.016 | [3] 0.048 | [4] -0.042 | [5] 0.019 | [6] -0.023 | [7] -0.003 | [8] 0.054 | [9] 0.074 | [10] -0.041

ATP6V0D1 (UniProt P61421)
inactive: [1] 0.016 | [2] -0.042 | [3] -0.208 | [4] -0.057 | [5] 0.101 | [6] -0.001 | [7] 0.044 | [8] 0.057 | [9] -0.006 | [10] -0.141

ARIH2 (UniProt O95376)
inactive: [1] -0.041 | [2] 0.021 | [3] -0.048 | [4] 0.047 | [5] -0.02 | [6] -0.031 | [7] 0.025 | [8] 0.031 | [9] -0.005 | [10] 0.004

ARMC6 (UniProt Q6NXE6)
inactive: [1] 0.091 | [2] -0.008 | [3] 0.058 | [4] 0.122 | [5] 0.042 | [6] 0.034 | [7] 0.02 | [8] 0.132 | [9] 0.234 | [10] -0.035

ATP5MD (UniProt Q96IX5)
inactive: [1] -0.004 | [2] -0.044 | [3] 0.151 | [4] 0.075 | [5] 0.03 | [6] -0.188 | [7] 0.061 | [8] -0.081 | [9] -0.074 | [10] -0.073

ATF2 (UniProt P15336)
inactive: [1] -0.092 | [2] 0.044 | [3] -0.13 | [4] -0.085 | [5] -0.005 | [6] -0.089 | [7] -0.04 | [8] 0.215 | [9] 0.073 | [10] -0.303
